No constants are given. Whether binding was seen depends on the method and setting. A result given as binding can be weak or reduced; the word gives no strength.
Biological target: T1, mCherry-TPRN (mouse) (UniProt A2AI08)
T1 sequence: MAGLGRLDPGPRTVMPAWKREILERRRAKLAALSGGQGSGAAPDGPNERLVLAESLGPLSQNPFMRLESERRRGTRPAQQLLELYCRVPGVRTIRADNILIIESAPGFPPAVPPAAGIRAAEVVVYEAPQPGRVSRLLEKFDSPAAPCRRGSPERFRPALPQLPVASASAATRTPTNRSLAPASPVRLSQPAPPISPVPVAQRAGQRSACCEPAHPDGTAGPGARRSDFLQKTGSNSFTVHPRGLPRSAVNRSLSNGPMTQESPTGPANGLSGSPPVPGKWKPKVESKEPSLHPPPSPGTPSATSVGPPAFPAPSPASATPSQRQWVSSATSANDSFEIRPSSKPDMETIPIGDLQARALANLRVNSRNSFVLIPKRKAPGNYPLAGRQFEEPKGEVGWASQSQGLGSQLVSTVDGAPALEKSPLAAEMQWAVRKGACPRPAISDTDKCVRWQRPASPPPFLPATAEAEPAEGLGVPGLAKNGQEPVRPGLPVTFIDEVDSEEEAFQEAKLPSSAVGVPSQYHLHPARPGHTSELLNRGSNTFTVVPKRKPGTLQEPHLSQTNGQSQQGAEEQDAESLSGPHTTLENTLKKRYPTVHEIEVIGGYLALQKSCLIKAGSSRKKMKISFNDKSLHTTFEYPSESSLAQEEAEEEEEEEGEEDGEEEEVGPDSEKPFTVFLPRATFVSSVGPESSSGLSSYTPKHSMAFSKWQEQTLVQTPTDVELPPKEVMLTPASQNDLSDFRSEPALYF
Assay: co-translocation to the nucleus (confocal microscopy); COS-7 cells co-expressing mCherry-TPRN and EGFP-PTPRQ; PTPRQ carried to nuclear whorl-like actin bundles

EGFP-PTPRQ (cytoplasmic intracellular domain of chicken PTPRQ with EGFP) (domain or fragment)
binding: binds

— PMC12139522
